Results are given in words; binding and its absence hold for the method and conditions named. Binding seen in cells or lysates may run through a third protein. Some entries that bind do so weakly or less than the wild type.
Molecular target: zeta-chain-associated protein 70 (ZAP-70) (UniProt P43403)
Experiment: co-IP; 500 ug protein of Raji-ZAP-70 lysate in 0.2% CHAPS lysis buffer (150 mM NaCl, 20 mM Tris, 10% glycerol, 2 mM EDTA, orthovanadate), mouse anti-Syk or mouse anti-ZAP-70 overnight at 4 °C, protein G plus agarose; cells treated with DMSO or 20 uM gefitinib for 24 h

Chains of the proteins cited; added tags and fusions are not shown. Residues count along the entry.
UniProt P43403: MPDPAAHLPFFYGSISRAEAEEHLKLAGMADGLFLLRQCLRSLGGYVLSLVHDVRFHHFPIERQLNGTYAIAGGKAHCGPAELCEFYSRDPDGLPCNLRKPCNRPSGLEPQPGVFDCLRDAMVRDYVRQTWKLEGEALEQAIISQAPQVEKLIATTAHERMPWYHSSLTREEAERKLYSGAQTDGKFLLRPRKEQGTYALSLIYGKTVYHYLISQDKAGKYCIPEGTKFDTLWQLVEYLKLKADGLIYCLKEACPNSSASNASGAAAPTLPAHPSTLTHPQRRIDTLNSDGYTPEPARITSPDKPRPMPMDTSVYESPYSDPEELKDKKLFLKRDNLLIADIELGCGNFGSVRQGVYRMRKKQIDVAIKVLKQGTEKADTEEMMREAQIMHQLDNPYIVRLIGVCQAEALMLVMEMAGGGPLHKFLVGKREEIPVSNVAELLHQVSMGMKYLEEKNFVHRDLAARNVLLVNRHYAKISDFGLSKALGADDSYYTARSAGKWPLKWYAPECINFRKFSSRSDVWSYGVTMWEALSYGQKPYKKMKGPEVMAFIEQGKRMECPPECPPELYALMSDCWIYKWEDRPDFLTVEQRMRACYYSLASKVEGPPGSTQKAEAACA
UniProt P11912, residues 33-226: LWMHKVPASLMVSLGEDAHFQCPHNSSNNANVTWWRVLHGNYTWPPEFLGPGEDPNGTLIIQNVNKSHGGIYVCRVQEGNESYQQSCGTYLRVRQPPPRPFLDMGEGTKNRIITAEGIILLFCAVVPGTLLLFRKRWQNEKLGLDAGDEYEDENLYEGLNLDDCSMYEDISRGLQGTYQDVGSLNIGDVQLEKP

binding: binds
Substance: CD79a (from UniProt P11912 33-226) (receptor)

Source: PMC4649506
